## Screening data, single-dose tests

Measurements from “University of Dundee, Small-Polar-MMV Screening Library” (2021), ChEMBL document CHEMBL3988442.

A: 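Assay of Toxoplasma gondii numbers, read through their beta-galactosidase reporter with a colour substrate. Concentration: 10 µM. Higher reads as fewer parasites (inferred from which compounds were picked for retests). Size under these conditions: about 67,000 compounds, about 260 of them at 50% or above in at least one test.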
B: 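Whole-parasite assay of Trypanosoma brucei over 72 hours; the read-out is not stated. Compounds at 30 µM. The record gives no direction; compounds that gave an IC50 in retests scored well above the rest, so higher reads as stronger inhibition. Values scatter widely below zero; nearly all retest evidence comes from the higher of the two concentrations used. Of about 64,000 compounds tested this way, about 940 (1.5%) reached 50% or more in at least one test.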
C: 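Cell assay of Leishmania donovani living inside macrophages; the read-out is not stated. Compounds at 30 µM. Direction is inferred from retests: higher values go with stronger inhibition. Size under these conditions: about 69,000 compounds, about 1,000 of them at 50% or above in at least one test.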

Each number is a percent effect as filed.
How 0% and 100% were set is not recorded. Most values in the screen are low, and negative values occur.
This is an unselected part of the compounds tested.
Two or more numbers in one place are separate tests of the same structure; such repeats can differ widely.

* CC(C)OCCSCc1nnc(-c2cccc(F)c2)o1 | A: 0.7991%; B: -18.46%; C: -22.86%
* CC(=O)NCc1cc2n(n1)CCN(Cc1cccc(Cl)c1Cl)C2 | A: -7.007%; B: -8.064%; C: -28.4%
* CCN(Cc1ccc(C(C)C)cc1)C(=O)c1csc(CN(C)C)n1 | A: -32.42%; B: -4.753%; C: -14.31%
* c1nc(N2CCCCC2Cn2cncn2)c2sccc2n1 (configuration not stated) | A: -17.33%; B: -16.96%; C: -8.431%
* CC(O)CNc1c(NCc2ccco2)c(=O)c1=O (configuration not stated) | A: 19.82%; B: -57.7%; C: 1.594%
* O=C(O)C(F)(F)F.[H][C@]12CCC[C@@H](CNc3ncccn3)[C@@]1([H])CN(Cc1cccnc1)C2 | A: -5.583%; B: -8.068%; C: 26.6%
* CCN1CCN(C(=O)Cn2ncc3c2c(C)nn3C(C)C)CC1 | A: 13.37%; B: -47.94%; C: 10.8%
* OCC1(O)CCN(Cc2ccc(-c3cc[nH]n3)s2)CC1 | A: -3.944%; B: -88.44%; C: 6.659%
* O=C(O)C(F)(F)F.[H][C@@]12CCN(CC3CC3)[C@]1([H])CC[C@@H](C(=O)NCc1ccco1)O2 | A: 7.776%; B: -36.23%; C: 12.47%
* CC(=O)N1CCCC(c2ncncc2-c2ccncc2)C1 (configuration not stated) | A: -23.25%; B: 14.92%; C: 14.11%
* COc1ccc(F)cc1CSCC(=O)N(CCC#N)CCC#N | A: -6.12%; B: -45.36%; C: 32.54%
* CC(NCc1cnn(C)c1)c1noc(-c2ccc(Cl)cc2)n1 (configuration not stated) | A: 1.326%; B: -67.65%; C: -15.43%
* CN(C)c1ccc(-c2ccnc3c2ccn3C)nn1 | A: -6.252%; B: -132%; C: 10.46%
* CC(C)(C)c1nnc(CN2CCCC2c2noc(C3CC3)n2)o1 (configuration not stated) | A: -2.585%; B: 18.95%; C: 27.76%
* Cc1cccc(-n2ncc3c2CCCC3NCC(C)(C)CO)c1C (configuration not stated) | A: 10.6%; B: -29.94%; C: 3.911% & -30.81%
* CC(=O)NC1CCCN(C(=O)NCc2cc[nH]n2)C1 (configuration not stated) | A: 3.89%; B: -10.98%; C: -10.99%
* Cc1c(CN2CCc3[nH]cnc3C2C2CC2)[nH]c2ccc(F)cc12 (configuration not stated) | A: -4.89%; B: -45.35%; C: 34.37%
* COc1ccccc1C(O)CNCc1c(C(C)C)nn(C)c1N(C)C (configuration not stated) | A: 5.188%; B: 30.25%; C: 16.91%
* Cn1c(SCC(N)=O)nnc1-c1csc2c1CCCC2 | A: -8.33%; B: -13.02%; C: -6.067%
* Cc1cc(NC(=O)CN(c2ccccc2)C(C)C)on1 | A: -8.67%; B: 11.53%; C: 1.267%
* COC(=O)c1ncccc1N1CCCCC1 | A: -0.2602%; B: -21.18%; C: -18.37%
* CCc1ccc(C(=O)N2CC[C@](C)(O)C(C)(C)C2)[nH]1 | A: -49.96%; C: 32.09%
* CO[C@@H]1CCN(C2CCOCC2)C[C@@H]1Cc1ccccc1.O=C(O)C(F)(F)F | A: 5.525%; B: -24.5%; C: -2.705%
* Cc1ccsc1C(Cc1ccccc1)NC(=O)CSCC(N)=O (configuration not stated) | A: -15.52%; B: 14.97%; C: 7.907%
* [H][C@@]12CN(CCOC)C[C@]1([H])[C@@H](OC)CCN2C(=O)c1cccc(OC)c1 | A: 0.1725%; B: 11.89%; C: 33.11%
* O=C(COc1ccc(F)cc1F)N1CCOCC(O)(CN2CCCC2)C1 (configuration not stated) | A: -5.724%; B: -97.54%; C: 20.39%
* Cc1ccc2c(c1)c(CNC(C)Cn1ccnc1)nn2C (configuration not stated) | A: -18.39%; B: 15.79%; C: 15.53%
* O=C(O)C(F)(F)F.O=C(O)C(F)(F)F.[H][C@]12CCC[C@@]1(COc1ccccn1)CN(C(=O)c1cncc(C)c1)C2 | A: 1.962%; B: 53.76%; C: 16.9%
* COc1ccc(Cl)cc1NCC(=O)NCCNc1ncccn1 | A: -16.25%; B: -3.8%; C: 31.59%
* CCN1CC(C(=O)N2CCN(c3cnn(C)c(=O)c3)CC2)CCC1=O (configuration not stated) | A: -1.148%; B: -22.12%; C: -25.73%
* O=C(Cc1cccc2ccccc12)N1CCC(Nc2cccnn2)CC1 | A: -19.29%; B: -9.935%; C: 14.51%
* CN(Cc1cccs1)C(=O)c1ccc(N2CCOCC2)c(F)c1 | A: -3.254%; B: -4.488%; C: -20.97%
* [H][C@@]12CN(C(=O)CC(F)(F)F)C[C@@]1([H])N(CC(C)C)C(=O)CO2 | A: 3.213%; B: -16.67%; C: 5.205% & -59.17%
* CSCCC(=O)NCc1cc2n(n1)CCCN(C1CCCCC1)C2 | A: 10.11%; B: -30.15%; C: -17.68%
* CSc1ccc(-c2noc(CN(Cc3ccccc3)C(C)C)n2)cc1 | A: -6.362%; B: -6.384%; C: -36.25%
* CCOc1no[n+]([O-])c1-c1ccccc1 | C: 13.35%
* CC(C)(C)c1ncc(C(=O)NCCNC(=O)c2ccc(O)cc2)s1 | A: -5.111%; B: -20.1%; C: 19.59%
* CCOc1ccc(NC(=O)NCCS(=O)(=O)CC)cc1C | A: 7.344%; B: -18.04%; C: -12.13%
* CCN(CC)S(=O)(=O)c1ccc(NC(=O)C(C)(C)C)cc1 | A: -3.245%; B: -41.3%; C: 13.29%

The first 3 entries again:

With CC(C)OCCSCc1nnc(-c2cccc(F)c2)o1 the screen gave A: 0.7991%; B: -18.46%; C: -22.86%.
With CC(=O)NCc1cc2n(n1)CCN(Cc1cccc(Cl)c1Cl)C2 the screen gave A: -7.007%; B: -8.064%; C: -28.4%.
With CCN(Cc1ccc(C(C)C)cc1)C(=O)c1csc(CN(C)C)n1 the screen gave A: -32.42%; B: -4.753%; C: -14.31%.